In US20040228930A1, “Treatment for hemorrhagic shock” (priority 2002, published 2004):

Experiment: Central hemodynamics (MAP, heart rate, shed blood volume) in sham and shocked mice
Type: in vivo

## [C-]#[O+] [CO, carbon monoxide]
Sham mice, CO 250 ppm inhaled
  MAP (Sham): 68.9 ± 6.0 mmHg
Sham operated mice, CO 250 ppm
  effect on MAP compared to air controls: did not alter
  effect on heart rate compared to air controls: did not alter
Shocked mice, CO 250 ppm
  volume of hemorrhaged blood shed to achieve a MAP of 25 mmHg, CO-treated vs air-treated: the same
Shocked mice, blood volume shed to achieve MAP of 25 mmHg, CO 250 ppm inhaled
  Shed Blood (Shock): 0.69 ± 0.6 mL
